This assay has as its target T1, recombinant human liver GK (Homo sapiens, UniProt P35557).
T1 construct: made in house; host or cells: E. coli
T1 sequence (P35557 1-466 isoform P35557-2): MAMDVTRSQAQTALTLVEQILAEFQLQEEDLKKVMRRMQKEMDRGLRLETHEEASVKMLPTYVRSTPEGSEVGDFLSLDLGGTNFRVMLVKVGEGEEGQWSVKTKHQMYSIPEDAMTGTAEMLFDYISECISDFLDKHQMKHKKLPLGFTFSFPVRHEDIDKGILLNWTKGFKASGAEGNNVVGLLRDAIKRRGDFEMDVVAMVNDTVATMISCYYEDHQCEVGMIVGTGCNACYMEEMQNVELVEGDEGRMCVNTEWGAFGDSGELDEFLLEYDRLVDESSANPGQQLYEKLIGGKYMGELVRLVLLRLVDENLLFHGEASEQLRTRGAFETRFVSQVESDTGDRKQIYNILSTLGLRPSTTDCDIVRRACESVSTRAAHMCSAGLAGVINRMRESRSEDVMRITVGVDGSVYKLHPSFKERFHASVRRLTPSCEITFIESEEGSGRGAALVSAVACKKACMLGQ
As to the kind of experiment: Glucokinase (GK) activation assay, G6PDH-coupled thio-NADH absorbance at 405 nm. On the set-up: dose or concentration left out as unconfirmed. It is filed as biochemical. As for the experimental part:
The glucokinase activity is the degree of activation of glucokinase, as determined not by direct measurement of glucose-6-phosphate, but by measurement of the amount of thio-NADH produced upon production of phosphogluconolactone from glucose-6-phosphate by the reporter enzyme glucose-6-phosphate dehydrogenase.
The recombinant human liver GK used in this assay was expressed in E. coli as FLAG fusion protein, and it was purified by […] M2 AFFINITY GEL (Sigma).
The assay was carried out using a flat-bottomed 96-well plate at 30° C. A 69 μl portion of assay buffer (25 mM Hepes Buffer: pH=7.2, 2 mM MgCl2, 1 mM ATP, 0.5 mM TNAD, 1 mM dithiothreitol) was dispensed, and either a DMSO solution of the compound or 1 μl of DMSO as a control was added. Next, 20 μl of an enzyme mixture (FLAG-GK, 20 U/ml G6PDH) precooled in ice bath was dispensed, and then 10 μl of 25 mM glucose was added as substrate and reaction was initiated (final glucose concentration=2.5 mM).
FLAG-GK was added to produce an absorbance increment of from 0.05 to 0.1 after 5 minutes in the presence of 1% DMSO.
The OD values were measured at each concentration of the evaluated compound, using the OD value of the DMSO control as 100%. The Emax (%) and EC50 (μM) values were calculated from the OD value at each concentration, and used as indices of the GK activating power of the compounds.

Among the data in patent US7754743B2, “Heteroarylcarbamoylbenzene derivatives” (Banyu Pharmaceutical Co., Ltd., priority 2003, dated 2010) are Emax values, retold here.

Molecules are shown by their SMILES.

`CC(CO)Oc1cc(Oc2ccc(S(C)(=O)=O)cc2)cc(C(=O)Nc2nccs2)c1` (stereo not shown) [Production Example 2, 5-(2-hydroxy-1-methyl-ethoxy)-3-(4-methanesulfonylphenoxy)-N-thiazol-2-yl-benzamide]: the Emax (in general, the greatest response seen or fitted, relative to the assay's reference) is 844%.
